Data on 18 molecules can be found in PubChem BioAssay AID2685 (National Center for Advancing Translational Sciences (NCATS), 2010).

The other results are listed elsewhere or left out. Shown are side measurements of this screen, not its main read-out; they come without a call. The list favours compounds with an active or inconclusive main result. The note in brackets gives the kind of curve behind each potency; many fits are weak.

The nature of the test: qHTS Assay for Lipid Storage Modulators in Drosophila S3 Cells.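 As to cell number change: cells counted by Cell Tracker Red CMTPX staining in the red channel.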 To be noted: BODIPY lipid droplet fluorescence, 18-24 h; for cell number change: measured here: cell count max response, cells fed with added oleic acid. Summed up:
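Laser-scanning cytometry quantifies lipid droplet accumulation (500–530 nm total intensity; droplet/cell object ratio) in oleic acid-fed (400 uM added) Drosophila S3 cells treated with a concentration series. 20 uM Triacsin C defined 100% inhibition.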

Setting [1] is: measured here: lipid fluorescence (Fed channel) AC50, cells fed with added oleic acid.
Setting [2] is: measured here: cell number channel AC50, cells fed with added oleic acid.

As a reminder, the AC50 is the concentration at which the activity in the assay is half-maximal. A lower AC50 goes with greater potency. `CN1CCN(c2cc(-c3cc(O)c4ncccc4c3)ccn2)CC1`: the cell number change is -13.6%. The concentration at half-maximal activity (AC50) under setting [1] is 25.9 µM [falling, single point].
As for `O=C(O)C1Nc2c(C(=O)N3CCOCC3)cccc2C2C=CCC12` (stereo not given), the cell number change is -23.1%. In addition, under setting [1], the AC50 is 4.11 µM [falling, full curve].
In the case of `O=C(Nc1sc2c(c1C(=O)O)CCC2)c1ccc(F)cc1`, the cell number change is 78.5%. Further, the AC50 under setting [2] is 13 µM [rising, partial curve].
Regarding `O=C(NC1CCCCC1)c1cc([N+](=O)[O-])ccc1N1CCOCC1`, the cell number change was 18.6%. For the same molecule, under setting [1], the concentration at half-maximal activity (AC50) is 0.116 µM [falling, full curve, poor fit].
Take `COc1ccc(NC(=O)N2CCC(n3nnc4cc(C)ccc43)CC2)cc1`: the cell number change came out at 9.56%. The AC50 under setting [1] was 1.64 µM [rising, partial curve, poor fit].
For `Cc1ccc(S(=O)(=O)N2CCCCC2)cc1NC(=O)c1cc2ccccc2o1`, the cell number change is -3.41%. Under setting [2], the AC50 is 6.51 µM [rising, single point]. Under setting [1], the concentration at half-maximal activity (AC50) is 9.2 µM [falling, partial curve, poor fit].
On to `Cc1cc(N(C)Cc2ccccc2)nc2cc(O)ccc12`, for which the cell number change was -16.7%.
Turning to `Cc1sc2nc(SCC(=O)Nc3ccccc3F)[nH]c(=O)c2c1C`, the cell number change worked out at 5.13%. For the same molecule, the concentration at half-maximal activity (AC50) under setting [2] is 0.731 µM [rising, single point].
Take `CC(C)c1ccc(N2C(=O)CC(Sc3ncn[nH]3)C2=O)cc1` (stereo not given): the cell number change amounted to 3.2%. Further, under setting [1], the concentration at half-maximal activity (AC50) was 29.1 µM [falling, single point].
`CCCC(c1nnnn1C1CCCCC1)N1CCN(C2CCCC2)CC1` (stereo not given): the cell number change is -23.1%. Besides, the AC50 under setting [1] is 29.1 µM [falling, partial curve, poor fit].
On to `COc1cc(/C=C/C(=O)OC(C)C(=O)c2ccccc2)cc(OC)c1OC` (stereo not given), for which the cell number change was -23.6%. Under setting [1], the concentration at half-maximal activity (AC50) was 1.64 µM [falling, partial curve, poor fit].
For `Cn1c(=O)c(C(=O)NNC(=O)c2ccccc2Cl)c(O)c2ccccc21`, the cell number change came out at 8.33%. Moreover, the AC50 under setting [1] was 29.1 µM [falling, single point].
As for `O=C(Nc1nnc(-c2ccco2)o1)c1ccc2ccccc2c1`, the cell number change is -10.3%. Further, the half-maximal activity concentration (AC50) under setting [1] is 29.1 µM [rising, single point].
In the case of `O=C(Nc1cccnc1)c1ccc(S(=O)(=O)c2ccccc2)cc1`, the cell number change was determined as 4.13%.
On to `COCCNC(=O)Cn1cc(/C=C(\C#N)C(=O)NC2CC2)c2ccccc21`, for which the cell number change stood at 36%. Further, the AC50 under setting [2] is 0.82 µM [rising, full curve, poor fit].
As to `CSc1ccccc1C(=O)N1CCN(c2cccc(Cl)c2)CC1`, the cell number change is 11.9%. Also, the AC50 under setting [1] was 0.103 µM [rising, partial curve, poor fit].
Turning to `COc1ccc(-c2cc(=O)oc3cc(OC(C)C(=O)NCc4ccccn4)ccc23)cc1` (stereo not given), the cell number change was -19%.
In the case of `O=C(O)CCCn1c(=O)[nH]c2ccccc2c1=O`, the cell number change was -11.2%. Further, the AC50 under setting [2] was 0.651 µM [falling, full curve, poor fit]. Under setting [1], the half-maximal activity concentration (AC50) is 0.461 µM [falling, full curve, poor fit].
